Assay results as given in patent US20250332213A1, “EXTENDED-RELEASE INJECTABLE GEL FORMULATIONS CONTAINING ANGIOTENSIN-(1-7) OLIGOPEPTIDES OR VARIANTS THEREOF” (ProNeurogen, Inc., priority 2021, published 2025).
Not every detail of the peptide structures is certain; ends, links or a residue may be inferred.

Experiment: Solubility assessment in various solvents
Type: physicochemical
Protocol: A small sample containing the (co-)polymer of interest (e.g., PLA or PLGA) and the ANG-(1-7) oligopeptide (total sample size: ˜1 mg) was placed into a microfuge tube. The solvent of interest (e.g., DMSO, NMP, BB, and/or BzOH) was added in μL aliquots until the drug compound was in solution. The samples were left overnight to fully dissolve and were sonicated the following day, as was necessary to fully solubilize the sample. Solubility was determined when/if a clear solution was obtained.
Solubility assessment was performed for the ANG-(1-7) oligopeptide of the disclosure across multiple different solvents shown in Table 6, below. […] All other solvents required sonication to fully dissolve the ANG-(1-7) oligopeptide. DMSO is a suitable starting solvent for gel formulation evaluation.
Solubility of PNA5 in various solvents was tested and for potential use with this peptide. […] All other solvents required sonication to fully dissolve PNA5. DMSO is a suitable starting solvent for gel formulation evaluation using the PNA5 peptide. Benzyl benzoate and benzyl alcohol may also be useful solvents or solvent additives.

With CC[C@H](C)[C@H](NC(=O)[C@H](Cc1ccc(O)cc1)NC(=O)[C@@H](NC(=O)[C@H](CCCNC(=N)N)NC(=O)[C@@H](N)CC(=O)O)C(C)C)C(=O)N[C@@H](Cc1c[nH]cn1)C(=O)N1CCC[C@H]1C(=O)O [ANG-(1-7), Asp-Arg-Val-Tyr-Ile-His-Pro] the “Appearance at 0-24 hours” value (solvent Benzyl Alcohol, 250 mg/mL) was “Translucent white, fluid”, the “Appearance at 0-24 hours” value (solvent Benzyl Benzoate, 250 mg/mL) was “Cloudy, fluid” and the “Appearance at 0-24 hours” value (solvent DMSO, 500 mg/mL) was “Clear colorless, fluid”. The “Appearance at 0-24 hours” value (solvent Ethoxylated Castor Oil, 250 mg/mL) was “Cloudy, gel”, the “Appearance at 0-24 hours” value (solvent Ethyl Laureate, 250 mg/mL) was “Cloudy, fluid” and the “Appearance at 0-24 hours” value (solvent Ethyl Oleate, 250 mg/mL) was “Cloudy, fluid”. The “Appearance at 0-24 hours” value (solvent NMP, 250 mg/mL) was “Clear colorless, fluid”, the “Appearance at 0-24 hours” value (solvent Oleic Acid, 250 mg/mL) was “Translucent white, viscous” and the “Appearance at 0-24 hours” value (solvent PBS at pH 7.4, 500 mg/mL) was “Clear colorless, fluid”. The “Appearance at 0-24 hours” value (solvent Polyethylene Glycol 300, 250 mg/mL) was “Translucent white, viscous”, the “Appearance at 0-24 hours” value (solvent Triacetin, 250 mg/mL) was “Cloudy, viscous” and the “Appearance at 0-24 hours” value (solvent Triethyl Citrate, 250 mg/mL) was “Cloudy, viscous”.
